# This is one part of the list. The list holds hits alone, and they repeat only in part.
# Chains of the proteins cited; added tags and fusions are not shown.
# CALR, P27797, UniProt P27797, whole entry: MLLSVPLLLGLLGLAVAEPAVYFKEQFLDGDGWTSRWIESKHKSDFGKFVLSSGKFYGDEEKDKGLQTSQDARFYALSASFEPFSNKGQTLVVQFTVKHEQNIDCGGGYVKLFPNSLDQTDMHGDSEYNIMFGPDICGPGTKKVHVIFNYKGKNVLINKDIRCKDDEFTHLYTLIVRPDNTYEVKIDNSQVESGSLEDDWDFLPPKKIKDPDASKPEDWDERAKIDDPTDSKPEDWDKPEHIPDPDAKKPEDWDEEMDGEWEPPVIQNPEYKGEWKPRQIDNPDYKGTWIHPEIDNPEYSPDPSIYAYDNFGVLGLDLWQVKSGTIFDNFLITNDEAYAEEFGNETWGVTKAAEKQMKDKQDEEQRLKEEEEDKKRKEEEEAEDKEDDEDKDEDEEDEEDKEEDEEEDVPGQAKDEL
# GSPT2, Q8IYD1, UniProt Q8IYD1, whole entry: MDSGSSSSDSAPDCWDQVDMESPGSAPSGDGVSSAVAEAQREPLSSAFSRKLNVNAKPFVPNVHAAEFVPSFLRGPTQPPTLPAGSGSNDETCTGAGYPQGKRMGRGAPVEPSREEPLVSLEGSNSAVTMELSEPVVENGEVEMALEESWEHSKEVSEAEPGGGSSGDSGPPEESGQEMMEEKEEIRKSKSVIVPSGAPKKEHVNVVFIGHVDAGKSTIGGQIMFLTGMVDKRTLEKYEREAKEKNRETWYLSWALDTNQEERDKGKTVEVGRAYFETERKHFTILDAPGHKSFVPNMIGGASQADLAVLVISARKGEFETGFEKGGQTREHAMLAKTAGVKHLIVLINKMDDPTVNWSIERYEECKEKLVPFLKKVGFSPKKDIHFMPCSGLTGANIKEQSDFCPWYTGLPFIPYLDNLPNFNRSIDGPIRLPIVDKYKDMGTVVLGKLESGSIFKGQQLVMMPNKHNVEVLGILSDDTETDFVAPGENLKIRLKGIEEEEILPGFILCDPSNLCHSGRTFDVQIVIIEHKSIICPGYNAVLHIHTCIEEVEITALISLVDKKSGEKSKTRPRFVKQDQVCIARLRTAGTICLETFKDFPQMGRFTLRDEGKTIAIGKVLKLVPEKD
# Assays:
# Test in all cases: PRISMA enrichment of interactor (LFQ) in peptide spot vs all other peptide spots (log2 fold change); higher = stronger / more specific binding of the interactor to the peptide
# [1] = target: ACLY, P53396
# Protocol: (§1)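 PRISMA: 15-aa overlapping tiles (offset 8 aa) of 60 microproteins, plus SOS1/GLUT1 control peptides, were spot-synthesized on cellulose membranes in triplicate. Membranes were incubated with benzonase-treated HEK293T lysate, and bound proteins were identified by LC-MS/MS with LFQ. Enrichment is the log2 fold change of each protein in one spot versus all other spots. Only interactors passing the significance cutoff are listed.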
# [2] = target: AP3B1, O00203
# Protocol: as §1
# [3] = target: ATP6V1C1, P21283
# Protocol: as §1
# [4] = target: BRIX1, Q8TDN6
# Protocol: as §1
# [5] = target: C11orf98, E9PRG8
# Protocol: as §1
# [6] = target: CALR, P27797
# Protocol: as §1
# [7] = target: CDK8, P49336
# Protocol: as §1
# [8] = target: CIP2A, Q8TCG1
# Protocol: as §1
# [9] = target: CMAS, Q8NFW8
# Protocol: as §1
# [10] = target: COX7A2, P14406
# Protocol: as §1
# [11] = target: DIDO1, Q9BTC0
# Protocol: as §1
# [12] = target: DSG2, Q14126
# Protocol: as §1
# [13] = target: EI24, O14681
# Protocol: as §1
# [14] = target: EYA3, Q99504
# Protocol: as §1
# [15] = target: GNL2, Q13823
# Protocol: as §1
# [16] = target: GSPT2, Q8IYD1
# Protocol: as §1
# [17] = target: HECTD3, Q5T447
# Protocol: as §1
# [18] = target: HSD17B12, Q53GQ0
# Protocol: as §1
# [19] = target: LARP4, Q71RC2
# Protocol: as §1
# [20] = target: LUZP1, Q86V48
# Protocol: as §1
# [21] = target: MAP1B, P46821
# Protocol: as §1
# [22] = target: MCM10, Q7L590
# Protocol: as §1
# [23] = target: MON2, Q7Z3U7
# Protocol: as §1
# [24] = target: MRTO4, Q9UKD2
# Protocol: as §1
# [25] = target: MTDH, Q86UE4
# Protocol: as §1
# [26] = target: MTFR1, Q15390
# Protocol: as §1
# [27] = target: MTOR, P42345
# Protocol: as §1
# [28] = target: NUP88, Q99567
# Protocol: as §1
# [29] = target: NUSAP1, Q9BXS6
# Protocol: as §1
# [30] = target: PRRC2C, Q9Y520
# Protocol: as §1
# [31] = target: PSMD14, O00487
# Protocol: as §1
# [32] = target: RBM17, Q96I25
# Protocol: as §1
# [33] = target: SAP18, O00422
# Protocol: as §1
# [34] = target: SERPINH1, P50454
# Protocol: as §1
# [35] = target: SUMO2, P61956
# Protocol: as §1
# [36] = target: TBCD, Q9BTW9
# Protocol: as §1
# [37] = target: TRIR, Q9BQ61
# Protocol: as §1
# [38] = target: TXLNG, Q9NUQ3
# Protocol: as §1
# [39] = target: YIF1B, Q5BJH7
# Protocol: as §1
binder,measurement,setting,value
PSPVIHKMNGLTTGR [RP11-12K22.1],PRISMA enrichment of interactor (log2),[1],8.64
same,PRISMA enrichment of interactor (log2),[2],4.75
same,PRISMA enrichment of interactor (log2),[3],5.17
same,PRISMA enrichment of interactor (log2),[4],6.26
same,PRISMA enrichment of interactor (log2),[5],4.74
same,PRISMA enrichment of interactor (log2),[6],8.56
same,PRISMA enrichment of interactor (log2),[7],3.96
same,PRISMA enrichment of interactor (log2),[8],4.89
same,PRISMA enrichment of interactor (log2),[9],5.65
same,PRISMA enrichment of interactor (log2),[10],4.45
same,PRISMA enrichment of interactor (log2),[11],5.46
same,PRISMA enrichment of interactor (log2),[12],5.83
same,PRISMA enrichment of interactor (log2),[13],5.72
same,PRISMA enrichment of interactor (log2),[14],6.17
same,PRISMA enrichment of interactor (log2),[15],4.9
same,PRISMA enrichment of interactor (log2),[16],5.28
same,PRISMA enrichment of interactor (log2),[17],5.62
same,PRISMA enrichment of interactor (log2),[18],5.87
same,PRISMA enrichment of interactor (log2),[19],4.48
same,PRISMA enrichment of interactor (log2),[20],4.65
same,PRISMA enrichment of interactor (log2),[21],4.27
same,PRISMA enrichment of interactor (log2),[22],4.1
same,PRISMA enrichment of interactor (log2),[23],4.76
same,PRISMA enrichment of interactor (log2),[24],4.68
same,PRISMA enrichment of interactor (log2),[25],5.54
same,PRISMA enrichment of interactor (log2),[26],3.79
same,PRISMA enrichment of interactor (log2),[27],6.28
same,PRISMA enrichment of interactor (log2),[28],4.25
same,PRISMA enrichment of interactor (log2),[29],4.49
same,PRISMA enrichment of interactor (log2),[30],6.47
same,PRISMA enrichment of interactor (log2),[31],8.95
same,PRISMA enrichment of interactor (log2),[32],4.69
same,PRISMA enrichment of interactor (log2),[33],5.41
same,PRISMA enrichment of interactor (log2),[34],5.82
same,PRISMA enrichment of interactor (log2),[35],4.9
same,PRISMA enrichment of interactor (log2),[36],7.64
same,PRISMA enrichment of interactor (log2),[37],4.07
same,PRISMA enrichment of interactor (log2),[38],5.85
same,PRISMA enrichment of interactor (log2),[39],4.19

# Looked up one by one from above:
binder,measurement,setting,value
PSPVIHKMNGLTTGR [RP11-12K22.1],PRISMA enrichment of interactor (log2),[27],6.28
same,PRISMA enrichment of interactor (log2),[10],4.45
